# PubChem BioAssay AID686938 – Drosophila RNAi Screening Center – 2013
# Aim: 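Knock-downs reducing store-operated calcium influx in Drosophila cells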 (primary screen)
# Cells: Drosophila S2R+ cells
# Reagents: long dsRNA against Drosophila genes, about 0.25 µg dsRNA per well, roughly 10,000 cells
# Timing: 5 days of knock-down before the calcium assay
# Challenge: thapsigargin (SERCA pump blocker) to empty calcium stores; entry signal taken 4 min after adding it
# Measured: 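Per-well fluo-4 fluorescence in two replicates, unnormalised, measured in resting cells and 4 min after store depletion by the SERCA blocker thapsigargin; ratio of the two present in few wells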
# Reading the numbers: calcium entry signal: higher = stronger calcium signal after store depletion; entry to resting ratio: higher = more calcium entry relative to resting level; resting calcium signal: higher = higher resting calcium signal
# Active means: 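Called when the plate z-score of the entry-to-rest ratio, mean of duplicates, falls below −3; wells with low overall dye signal (Fmax z below −2) or more than five off-targets excluded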
# Meaning of the calls: active = strongly reduced calcium entry; inactive = no strong reduction
# In all, the deposit lists about 23,000 reagents; this is an unselected part of those with a known target gene and a result. Of all reagents, 75 (0.33%) are marked active. 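Raw plate signals without normalisation; calls rest on plate z-scores that were not deposited; ratio present for only 364 wells.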 Entries without a mark were called inactive. Reagents against one gene are numbered here. Names joined by + are all predicted targets of the reagent. Not given: the dose of the treatment.
gene,dsRNA no.,"calcium entry signal, replicate 1 (fluorescence units)","calcium entry signal, replicate 2 (fluorescence units)",entry to resting ratio,"resting calcium signal, replicate 1 (fluorescence units)","resting calcium signal, replicate 2 (fluorescence units)"
CG2750 (GeneID 32179),1,4.96e7,4.22e7,,2.36e7,1.96e7
CG33285 (GeneID 2768988),1,3.81e7,3.89e7,,1.84e7,1.82e7
AnxB10 (GeneID 33019),1,3.33e7,3.26e7,,2.10e7,1.62e7
CG34305 (GeneID 5740825),1,3.46e7,3.49e7,,1.70e7,1.59e7
CG32986 (GeneID 34208),1,2.09e7,3.48e7,,9.55e6,1.52e7
l(1)G0320 (GeneID 326234),1,3.54e7,3.76e7,,1.65e7,1.68e7
ND-B14.5AL (GeneID 40477),1,3.03e7,5.57e7,,1.49e7,2.21e7
Unc-76 (GeneID 31179),1,4.13e7,5.14e7,2,2.03e7,2.15e7
Unc-76 (GeneID 31179),2,4.15e7,6.46e7,2.1,2.02e7,2.41e7
Mst98Ca (GeneID 47854),1,3.79e7,3.76e7,,1.76e7,2.06e7
CG34028 (GeneID 3885648),1,2.50e7,2.72e7,,1.28e7,1.30e7
CG5455 (GeneID 43196),1,3.17e7,3.22e7,,1.40e7,1.44e7
CG7542 (GeneID 39960),1,5.24e7,7.10e7,,2.33e7,2.86e7
CG17666 (GeneID 39452),1,2.31e7,3.30e7,,1.26e7,1.52e7
futsch (GeneID 5740544),1,2.98e7,4.40e7,,1.67e7,1.74e7
futsch (GeneID 5740544),2,2.79e7,5.51e7,2,1.42e7,2.86e7
futsch (GeneID 5740544),3,2.95e7,3.66e7,,1.37e7,1.73e7
futsch (GeneID 5740544),4,2.28e7,3.88e7,2,1.16e7,1.60e7
Ncoa6 (GeneID 33761),1,1.94e7,,,1.54e7,
Ncoa6 (GeneID 33761),2,3.34e7,2.73e7,,1.73e7,1.43e7
Jon99Cii (GeneID 43544),1,3.86e7,6.24e7,,1.98e7,2.66e7
Jon99Cii (GeneID 43544),2,5.04e7,3.91e7,,2.27e7,1.62e7
CG7194 (GeneID 38933),1,2.11e7,3.17e7,,1.06e7,1.40e7
ninaB (GeneID 41678),1,2.96e7,4.78e7,,1.45e7,6.33e7
mop (GeneID 39610),1,2.76e7,4.40e7,,1.46e7,3.06e7
Mrtf (GeneID 38338),1,3.61e7,4.03e7,,1.89e7,1.88e7
Mrtf (GeneID 38338),2,3.84e7,4.47e7,,2.18e7,2.00e7
Mrtf (GeneID 38338),3,4.52e7,4.46e7,,2.53e7,2.01e7
Mrtf (GeneID 38338),4,3.78e7,3.70e7,,1.84e7,1.46e7
CG5194 (GeneID 39037),1,4.22e7,2.84e7,,2.90e7,1.33e7
Hpf1 (GeneID 40718),1,3.47e7,3.99e7,,1.59e7,1.82e7
E(spl)m7-HLH (GeneID 43160),1,3.09e7,5.25e7,,1.74e7,2.09e7
CG9123 (GeneID 32462),1,1.81e7,2.35e7,,1.05e7,1.10e7
Dnaaf6 (GeneID 39598),1,3.56e7,4.77e7,,1.66e7,1.87e7
pygo (GeneID 43718),1,2.36e7,2.20e7,,1.41e7,1.34e7
Grip (GeneID 50391),1,2.96e7,3.78e7,,1.56e7,1.96e7
Grip (GeneID 50391),2,3.12e7,3.87e7,,1.60e7,1.88e7
Gs1l (GeneID 33653),1,2.53e7,2.50e7,,1.20e7,1.13e7
CG13385 (GeneID 34164),1,3.54e7,4.19e7,,1.67e7,1.90e7
Cmpk (GeneID 43165),1,3.61e7,3.66e7,,1.67e7,1.72e7
Atac2 (GeneID 35113),1,4.87e7,,,2.07e7,
Lhr (GeneID 36957),1,3.16e7,2.60e7,,1.41e7,1.37e7
CG13114 (GeneID 34272),1,3.99e7,6.74e7,,1.98e7,2.77e7
CG8135 + BBIP1,1,2.06e7,4.54e7,,1.09e7,1.78e7
CG8135 + BBIP1,2,2.70e7,2.27e7,,1.48e7,1.29e7
CG34135 + Nasp + CG11768,1,4.57e7,3.25e7,,2.08e7,1.61e7
CG34135 + Nasp + CG11768,2,3.83e7,2.67e7,,1.99e7,1.42e7
CG34135 + Nasp + CG11768,3,4.65e7,3.02e7,,2.14e7,1.45e7
ND-49L (GeneID 43073),1,2.98e7,5.21e7,,1.71e7,2.25e7
CG10737 (GeneID 37202),1,3.26e7,2.98e7,,1.50e7,1.37e7
moi + Tgs1,1,4.11e7,4.25e7,,5.47e7,2.02e7
imd (GeneID 44339),1,3.97e7,3.43e7,,1.83e7,1.57e7
Ccp84Ag (GeneID 40819),1,4.58e7,2.89e7,,2.08e7,1.39e7
Ccp84Ag (GeneID 40819),2,4.28e7,4.20e7,,2.66e7,2.06e7
mRpL30 (GeneID 31398),1,4.72e7,5.42e7,,2.17e7,2.18e7
Ent1 (GeneID 33207),1,3.65e7,,,2.08e7,
Adsl (GeneID 42051),1,3.29e7,2.81e7,,1.63e7,1.32e7
CG17687 (GeneID 39495),1,3.29e7,4.41e7,,1.68e7,1.97e7
CG41020 (retired record) (GeneID 5740564),1,3.02e7,4.50e7,,1.50e7,2.05e7
CG14391 (GeneID 41567),1,3.39e7,4.11e7,,1.75e7,2.03e7
CG42404 (GeneID 41842),1,3.47e7,3.93e7,,1.78e7,6.30e7
CG30109 (GeneID 246461),1,3.57e7,4.95e7,,1.70e7,2.55e7
CG12818 (GeneID 41261),1,3.83e7,3.40e7,,1.75e7,1.75e7
CG11227 (GeneID 33071),1,5.07e7,5.78e7,,2.61e7,2.42e7
Wdr24 (GeneID 43505),1,4.09e7,4.38e7,,2.14e7,2.06e7
CG3106 (GeneID 31909),1,3.24e7,4.41e7,,1.44e7,1.83e7
B-H1 (GeneID 32724),1,3.68e7,3.04e7,,1.89e7,1.56e7
B-H1 (GeneID 32724),2,3.84e7,6.89e7,,1.83e7,3.20e7
trk (GeneID 34376),1,3.79e7,4.88e7,,1.81e7,2.11e7
Ir94e (GeneID 42765),1,4.17e7,5.45e7,,2.03e7,2.50e7
Csk (GeneID 41398),1,3.54e7,3.89e7,,1.61e7,1.86e7
Csk (GeneID 41398),2,3.05e7,3.30e7,,1.36e7,1.59e7
Csk (GeneID 41398),3,4.86e7,3.93e7,,2.31e7,1.80e7
Hmu (GeneID 43294),1,4.15e7,6.07e7,,2.01e7,2.35e7
CG1635 (GeneID 43720),1,3.34e7,3.91e7,,1.59e7,1.93e7
